Test results: patent publication US8940788B2, “Anti-angiogenic composition containing macrolactin A and a derivative thereof as active ingredients” (Daewoo Pharmaceutical Ind. Co., Ltd., priority 2010, dated 2015)
At least one structure is not confirmed: it was looked up by name or label, or the drawing left a doubt.

System: Human fibrosarcoma cells (HT-1080)
Test: Infiltration test of fibrosarcoma cells (suppressive effect on metastasis of cancer), transwell with Matrigel
Type: cell-based
Details: 18 hours, compound 5 μM
Description: Human fibrosarcoma cells (HT-1080) were cultured in DMEM containing 10% fetal bovine serum (FBS) and 1% penicillin/streptomycin (PS) under the condition of 37° C. and 5% CO2. When the cells grew to fill 80% or more of the culture flask, they were subcultured at a ratio of 1:3 and used in this test. In order to confirm the suppressive effect of the macrolactin compounds on metastasis of cancer in in vitro experiments, an infiltration test of fibrosarcoma cells was carried out by using a 24-well transwell attached with a polycarbonate filter of […] pore size. Firstly, the bottom side of the filter was coated with Collagen Type I (0.5 mg/ml), and then the upper side of the filter was coated with Matrigel (1.5 mg/ml). After coating, the lower part of the insert was filled with a medium containing 5% FBS, and the upper part was filled with serum-free medium human fibrosarcoma cells (HT-1080) which were incubated for 18 hours in a cell incubator. The human fibrosarcoma cells infiltrated into the bottom side of the filter were fixed with methanol and then dyed with hematoxylin and eosin. The infiltrated cells were observed under a microscope, and 3 parts were randomly selected from each filter to take photographs and determine the number of cells (Kim, M. S. et al., Cancer Res., 63, pp. 5454-5461, 2003; Park, B. C. et al., Eur. J. Pharm., 567, pp. 193-197, 2007).

How did the “suppressive effect on metastasis (infiltration) of fibrosarcoma cells induced by 5% FBS” value turn out when `CNC(=O)[C@H](Cc1ccccc1)NC(=O)[C@H](CC(C)C)[C@H](CSc1cccs1)C(=O)NO` [batimastat, reference compound] was run?
The value was “significantly suppressed”.
